This passage reports binding results from publication PMC6868398.

Amino acid sequences for entries named in this document (tags omitted).
UniProt Q17963: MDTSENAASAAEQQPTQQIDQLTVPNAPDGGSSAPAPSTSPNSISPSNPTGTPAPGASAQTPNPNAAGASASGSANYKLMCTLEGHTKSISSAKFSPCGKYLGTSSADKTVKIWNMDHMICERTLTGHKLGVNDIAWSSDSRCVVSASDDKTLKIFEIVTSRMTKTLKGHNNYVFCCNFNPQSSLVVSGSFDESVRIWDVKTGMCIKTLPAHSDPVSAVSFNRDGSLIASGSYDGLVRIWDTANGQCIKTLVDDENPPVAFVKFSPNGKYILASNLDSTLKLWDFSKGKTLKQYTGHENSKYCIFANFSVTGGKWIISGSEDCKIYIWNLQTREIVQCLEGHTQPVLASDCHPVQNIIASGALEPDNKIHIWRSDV
UniProt O17695: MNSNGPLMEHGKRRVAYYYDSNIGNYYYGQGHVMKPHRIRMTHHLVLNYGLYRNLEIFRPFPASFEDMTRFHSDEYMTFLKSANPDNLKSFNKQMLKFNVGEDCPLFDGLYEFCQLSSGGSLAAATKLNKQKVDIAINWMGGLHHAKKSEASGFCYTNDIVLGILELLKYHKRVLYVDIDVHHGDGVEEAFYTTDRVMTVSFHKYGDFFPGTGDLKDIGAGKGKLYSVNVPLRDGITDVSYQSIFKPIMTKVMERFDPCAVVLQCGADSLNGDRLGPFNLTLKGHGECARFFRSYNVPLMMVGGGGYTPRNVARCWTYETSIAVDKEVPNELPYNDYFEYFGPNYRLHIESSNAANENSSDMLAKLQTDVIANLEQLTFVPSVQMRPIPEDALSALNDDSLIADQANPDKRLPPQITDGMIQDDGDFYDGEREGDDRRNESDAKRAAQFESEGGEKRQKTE

Where two headings read alike, the source gives them in different places. Results are given in words; binding and its absence hold for the method and conditions named. For part of these data: In cells and extracts the contact can be indirect. Some results given as binding are weak or reduced against the parent protein; the word gives no strength. For part of these data: Tags and fused reporters may be left off the sequences shown.

For assay [1], the target named is HA::WDR-5.1 (C. elegans) (UniProt Q17963). The experiment in a line: co-IP; HA::WDR-5.1 precipitated with anti-HA affinity matrix from C. elegans embryo extract, benzonase treatment, eluted with HA peptide; western blot; control from wild type without transgene. On the technique in general: A western blot detects proteins with antibodies after separation by electrophoresis.

The next assay has as its target T1, CFP-1::GFP (C. elegans) (UniProt Q9XUE7).
T1 sequence: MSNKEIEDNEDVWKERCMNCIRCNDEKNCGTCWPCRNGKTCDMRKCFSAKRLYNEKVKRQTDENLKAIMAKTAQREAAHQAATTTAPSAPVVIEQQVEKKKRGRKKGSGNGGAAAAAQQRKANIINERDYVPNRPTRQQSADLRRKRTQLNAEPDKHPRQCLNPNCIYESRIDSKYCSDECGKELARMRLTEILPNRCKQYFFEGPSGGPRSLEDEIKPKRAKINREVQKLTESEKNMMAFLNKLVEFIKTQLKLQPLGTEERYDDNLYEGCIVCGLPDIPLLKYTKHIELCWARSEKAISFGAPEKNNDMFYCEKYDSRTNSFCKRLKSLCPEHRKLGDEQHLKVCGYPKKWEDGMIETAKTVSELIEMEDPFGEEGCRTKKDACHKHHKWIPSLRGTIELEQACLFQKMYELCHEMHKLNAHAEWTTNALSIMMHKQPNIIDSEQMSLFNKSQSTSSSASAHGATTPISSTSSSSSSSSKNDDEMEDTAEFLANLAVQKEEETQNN
The assay can be described thus: co-IP; CFP-1::GFP precipitated with GFP-TRAP MA beads from C. elegans embryo total protein extract (4-5 mg); IP buffer 50 mM HEPES/KOH pH 7.5, 300 mM KCl, 0.2% Igepal-CA630; benzonase treatment; western blot; control from wild type without transgene; CFP-1/SIN-3 also from young adults; HDA-1 and MRG-1 also from sin-3(tm1276) mutant extracts.

Assay [2] has as its target T2, Full-length GST::CFP-1 (C. elegans) (UniProt Q9XUE7).
T2 sequence: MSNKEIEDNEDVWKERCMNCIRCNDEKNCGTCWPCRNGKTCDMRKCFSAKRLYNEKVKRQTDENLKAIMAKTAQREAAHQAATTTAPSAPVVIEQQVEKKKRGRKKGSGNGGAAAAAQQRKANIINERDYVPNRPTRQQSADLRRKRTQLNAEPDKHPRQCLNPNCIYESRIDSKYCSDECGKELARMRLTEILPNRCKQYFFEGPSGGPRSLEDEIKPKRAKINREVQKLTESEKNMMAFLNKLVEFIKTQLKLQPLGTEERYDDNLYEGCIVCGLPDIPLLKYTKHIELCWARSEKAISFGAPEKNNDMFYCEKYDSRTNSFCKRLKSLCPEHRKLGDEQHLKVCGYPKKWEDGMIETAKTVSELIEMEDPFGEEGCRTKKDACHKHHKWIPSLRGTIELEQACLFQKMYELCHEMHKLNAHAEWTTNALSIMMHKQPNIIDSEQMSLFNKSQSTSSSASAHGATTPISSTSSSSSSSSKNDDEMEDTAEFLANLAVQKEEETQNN
The assay can be described thus: pull-down; GST::CFP-1 bacterial supernatant mixed with HIS6::SIN-3 fragment supernatant overnight at 4°C; GST purification; lysis buffer 50 mM Tris pH 8.0, 300 mM NaCl; eluted with 20 mM glutathione; western blot with anti-histidine antibody.

The target of assay [3] is HA::WDR-5.1 (C. elegans) (UniProt Q17963). The experiment in a line: co-IP; HA::WDR-5.1 precipitated with anti-HA affinity matrix from C. elegans embryo extract, benzonase treatment, eluted with HA peptide; western blot; control from wild type without transgene. The source holds these as a separate data set.
The target of assay [4] is CFP-1 full length, yeast two-hybrid fusion (C. elegans) (UniProt Q9XUE7). The assay can be described thus: two-hybrid; LexA (BD)/B42 (AD) system, cross-mating of EGY42a (BD + pSH18-34 reporter) and TB50alpha (AD) yeast, beta-galactosidase (X-Gal) staining after 48 h at 25°C; each hetero-interaction tested in both directions.
The target of assay [5] is SIN-3 full length, yeast two-hybrid fusion (C. elegans) (UniProt A5JYW9). The description is as above.
For assay [6], the target named is MRG-1 full length, yeast two-hybrid fusion (C. elegans) (UniProt A7DTF0). The assay is described as above.

As to HDA-1 (from UniProt O17695 1-461), the binding entry in the assay with HA::WDR-5.1 (C. elegans) [1] and with CFP-1::GFP (C. elegans) was “binds” each time.

Turning to SIN-3 (from UniProt A5JYW9 1-1507), in the assay with CFP-1::GFP (C. elegans), the binding entry was “binds”. Still for that read-out and setting: then HA::WDR-5.1 (from UniProt Q17963 1-376), with “binds”.

B1: HIS6::SIN-3[1–738] (domain or fragment, UniProt A5JYW9 1-738)
chain: MYNPPPGGGGGNNGGDQSQQQPTNNATLFLLQMIQQSQHQQQHQNQQQQQLELQIRDQERILIEQQRMQHQQQQNQLLQGLNQFPFNPLGLFQVQAAVQAAQAQFAQNAQGSPIPFHIGSPLQPSHSPAASALQQQYLLPSHSPAITPFARNSEAARNIEQFIAQEEAANVPRANSQQQSPLIRPIPQQQALNIQNLTSTQQAQQILAHHRQVPVQQVQHQQHIPTPPLALPIAQQGPISNEVPSVPPVVPATSAGCPQREPRQQQGGRRQNRPGRRKKPEGPPRVDEALAYLRVIKSTFSSDVPVYHRFLEIMKDFRAQRIETPDVIEQVAELLYDSPELVLGFNTFLPTGYRITLTPDRKYVFSSPQMQPRVLLSPDERRARAIEAGAQAVGAIELGSQEGISKDEDRTIEDEDMDKSKEKDDVDGIDDEDDEESGIEDKNNEEMMEEDNHLIEEIICDDRKKDDCEDSQQEIEMSSELAAHTLNIIELLKKSFLARPTKLVDFMTFIDFFMSDQQYKKDMEKLRKDDEDDEIEENEKIEVDDVPGPSNAPQEIKKPDDIEKKDSSKNLQIEESCSDYLVSMLANCCIGEPDLLAATIDFLPYLGKLLVNGSDAIALKIKTILHFSATNDRNDIPPVNRVNPSDVDMDLVKQMEKCKMGTKKNEKLKLKVAGQGDEGATVELMILKKSYRILYERLKSRTTPNQLSHLMVLINAYANLDITREQLISELPKIMGTS
B1: in assay [2], the binding entry is given as “binds”.

B2: ASH-2 (protein, UniProt G5EFZ3 1-570)
chain: MRSSKGGRGRQAAPKTAPTTVCYCDGKRELGSVEVVCSTCLKWFHGRCLKEFHELNSNGVPFMICYTFTCKQCRPTAEDWKAKKADLVQMCVTVLATLSAERLKADGKLSAEHVPEDFTYLSLKDEIVPYMNENWYMLTAIKQKKEWHQNLAPTLLKEKNIFVQHNDDDDLFALAEKNLSLLGPLHEAVKLIGKRPIERENREPRHIELPPIEGPKTRGASKRRHAEAPVTGKKQKLAADYSSTAAPNGVQIDIPFSKDNYRYYLTEVDPNVPEDPAWNQNQSSAYVIPSFHYRELLNPTVNVSSNDRAFQLSINGNSITGFEGYSMARASHGVSKGTWYFEVNFDDQPDDSHIRIGWSQSYASLQACVGYNKFSYGWRSKHGTKFHEAKGKKYHFGGFKQGDVLGCLIHLPVDKKLQIPANLPSEKYLPVSHKGFNLISFKANYFFEVQEESADIAKTLVEMPGSYIEFFHNGKSCGKAYENIYAGAYYPSISIFKSATATMNLGPKFRNLPRGATGIHARADEQQHEQTLSDMLYLVSKEVNLDHPPRVKREDDDDVKDIKKEIKQEI
Consider B2, for which the binding entry with HA::WDR-5.1 (C. elegans) [3] and with CFP-1::GFP (C. elegans) was “binds” each time.

B3: CFP-1 full length, yeast two-hybrid fusion (protein, UniProt Q9XUE7 1-508)
chain: MSNKEIEDNEDVWKERCMNCIRCNDEKNCGTCWPCRNGKTCDMRKCFSAKRLYNEKVKRQTDENLKAIMAKTAQREAAHQAATTTAPSAPVVIEQQVEKKKRGRKKGSGNGGAAAAAQQRKANIINERDYVPNRPTRQQSADLRRKRTQLNAEPDKHPRQCLNPNCIYESRIDSKYCSDECGKELARMRLTEILPNRCKQYFFEGPSGGPRSLEDEIKPKRAKINREVQKLTESEKNMMAFLNKLVEFIKTQLKLQPLGTEERYDDNLYEGCIVCGLPDIPLLKYTKHIELCWARSEKAISFGAPEKNNDMFYCEKYDSRTNSFCKRLKSLCPEHRKLGDEQHLKVCGYPKKWEDGMIETAKTVSELIEMEDPFGEEGCRTKKDACHKHHKWIPSLRGTIELEQACLFQKMYELCHEMHKLNAHAEWTTNALSIMMHKQPNIIDSEQMSLFNKSQSTSSSASAHGATTPISSTSSSSSSSSKNDDEMEDTAEFLANLAVQKEEETQNN
Turning to B3, the binding result in assay [4] and in assay [5] was “binds” in each case.

B4: CFP-1::GFP (protein, UniProt Q9XUE7 1-508)
chain: MSNKEIEDNEDVWKERCMNCIRCNDEKNCGTCWPCRNGKTCDMRKCFSAKRLYNEKVKRQTDENLKAIMAKTAQREAAHQAATTTAPSAPVVIEQQVEKKKRGRKKGSGNGGAAAAAQQRKANIINERDYVPNRPTRQQSADLRRKRTQLNAEPDKHPRQCLNPNCIYESRIDSKYCSDECGKELARMRLTEILPNRCKQYFFEGPSGGPRSLEDEIKPKRAKINREVQKLTESEKNMMAFLNKLVEFIKTQLKLQPLGTEERYDDNLYEGCIVCGLPDIPLLKYTKHIELCWARSEKAISFGAPEKNNDMFYCEKYDSRTNSFCKRLKSLCPEHRKLGDEQHLKVCGYPKKWEDGMIETAKTVSELIEMEDPFGEEGCRTKKDACHKHHKWIPSLRGTIELEQACLFQKMYELCHEMHKLNAHAEWTTNALSIMMHKQPNIIDSEQMSLFNKSQSTSSSASAHGATTPISSTSSSSSSSSKNDDEMEDTAEFLANLAVQKEEETQNN
Take B4: the binding result with HA::WDR-5.1 (C. elegans) [3] is recorded as “binds”.

B5: MRG-1 (protein, UniProt A7DTF0 1-337)
chain: MSSKKNFEVGENVACIYKGKPYDAKITDIKTNSDGKELYCVHFKGWNNRYDEKIPVGEEKDRIFKGTASEYAEKHNAELPTTALKPKKKSLAAEAPRDDRDDTPGTSKGKKAKSVTIAPVMTADDMKVELPKPLRKILIDDYDLVCRYFINIVPHEYSVDQIIEDYIKTIPVSNEQMRTVDDLLIEYEEADIKITNLALICTARGLVDYFNVTLGSSYQLLYKFERPQYNDLVKKRAMEKGIDITNPTALQDSGFRPSQEYGIVHFLRMLAKLPDYLKLTQWNDHVINRIMIGVHDLIVFLNKNHGKYYRGSSDYQGASNDYYRRSLAADDGVGANQ
As to B5, the binding result in the assay with CFP-1::GFP (C. elegans) is on record as “binds”.

B6: MRG-1 full length, yeast two-hybrid fusion (protein, UniProt A7DTF0 1-337)
chain: MSSKKNFEVGENVACIYKGKPYDAKITDIKTNSDGKELYCVHFKGWNNRYDEKIPVGEEKDRIFKGTASEYAEKHNAELPTTALKPKKKSLAAEAPRDDRDDTPGTSKGKKAKSVTIAPVMTADDMKVELPKPLRKILIDDYDLVCRYFINIVPHEYSVDQIIEDYIKTIPVSNEQMRTVDDLLIEYEEADIKITNLALICTARGLVDYFNVTLGSSYQLLYKFERPQYNDLVKKRAMEKGIDITNPTALQDSGFRPSQEYGIVHFLRMLAKLPDYLKLTQWNDHVINRIMIGVHDLIVFLNKNHGKYYRGSSDYQGASNDYYRRSLAADDGVGANQ
In the case of B6, in assay [6], the binding entry is listed as “binds”.
